Assay results: US10550114B2, “Kinase inhibitors and their use in cancer therapy” (TECHNISCHE UNIVERSITÄT DORTMUND, priority 2015, dated 2020)
For at least one compound, name, drawing or mass did not settle the structure.

Chains of the proteins cited; added tags and fusions are not shown. Lines headed by an entry give the natural chain unless they say otherwise; changes in a name come on top.
UniProt P31749: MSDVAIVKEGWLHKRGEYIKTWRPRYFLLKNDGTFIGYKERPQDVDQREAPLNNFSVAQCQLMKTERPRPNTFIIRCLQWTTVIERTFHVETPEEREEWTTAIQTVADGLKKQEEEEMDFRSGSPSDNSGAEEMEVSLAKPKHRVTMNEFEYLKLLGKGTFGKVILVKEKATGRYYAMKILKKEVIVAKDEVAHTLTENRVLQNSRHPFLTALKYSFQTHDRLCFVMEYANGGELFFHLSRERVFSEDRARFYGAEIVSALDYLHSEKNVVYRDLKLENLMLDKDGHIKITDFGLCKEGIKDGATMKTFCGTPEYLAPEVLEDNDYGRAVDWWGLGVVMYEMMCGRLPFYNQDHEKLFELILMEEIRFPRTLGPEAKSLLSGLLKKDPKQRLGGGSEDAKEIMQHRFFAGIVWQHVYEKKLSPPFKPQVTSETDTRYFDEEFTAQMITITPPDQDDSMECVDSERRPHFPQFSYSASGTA

Molecular target: activated full-length Akt1 (Homo sapiens (Human), UniProt P31749)
Experiment: Kinetic parameters (Ki, kinact), ECHO520 dilution series
Type: biochemical
Details: range over the most potent inhibitors
Description: Time-dependent IC50 measurements were performed with activated full-length Akt1 as described under “Biochemical assays”. Briefly, IC50 values were determined for twelve different incubation times and afterwards plotted versus accordingly. Data was analyzed according to literature procedure as described in B. F. Krippendorff, R. Neuhaus, P. Lienau, A. Reichel, W. Huisinga, J. Biomol. Screen.
Calculated IC50 values were plotted versus the incubation time and data was fit as described in the literature to determine kinact and Ki as described above.

C=CC(=O)Nc1ccc2c(c1)n(C1CCN(Cc3ccc(-c4nc5cc[nH]c(=O)c5cc4-c4ccccc4)cc3)CC1)c(=O)n2C [Compound 46]
rates of irreversible enzyme inactivation: 110000 to 134000 M⁻¹ s⁻¹
